The assay deals with Flag-Survivin (UniProt O15392). Description: co-IP; SCC25 cells transfected with HA-Fbxl7 and Flag-Survivin plasmids, treated with xanthohumol for 24 h or not; whole-cell lysate subjected to Co-IP and IB; which protein was precipitated is not told.

Protein sequences, listed by entry. Tags and fused reporters are not part of them.
UniProt O15392: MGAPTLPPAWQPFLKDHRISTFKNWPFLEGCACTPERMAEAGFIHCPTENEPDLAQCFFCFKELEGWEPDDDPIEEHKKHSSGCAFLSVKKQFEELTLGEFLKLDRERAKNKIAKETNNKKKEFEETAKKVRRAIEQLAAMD

No constants are given. Whether binding was seen depends on the method and setting. In cells and extracts the contact can be indirect. Some results given as binding are weak or reduced against the parent protein; the word gives no strength. Tags and fused reporters may be left off the sequences shown.

B1: HA-Fbxl7 (protein, UniProt Q9UJT9 1-491)
chain: MGANNGKQYGSEGKGSSSISSDVSSSTDHTPTKAQKNVATSEDSDLSMRTLSTPSPALICPPNLPGFQNGRGSSTSSSSITGETVAMVHSPPPTRLTHPLIRLASRPQKEQASIDRLPDHSMVQIFSFLPTNQLCRCARVCRRWYNLAWDPRLWRTIRLTGETINVDRALKVLTRRLCQDTPNVCLMLETVTVSGCRRLTDRGLYTIAQCCPELRRLEVSGCYNISNEAVFDVVSLCPNLEHLDVSGCSKVTCISLTREASIKLSPLHGKQISIRYLDMTDCFVLEDEGLHTIAAHCTQLTHLYLRRCVRLTDEGLRYLVIYCASIKELSVSDCRFVSDFGLREIAKLESRLRYLSIAHCGRVTDVGIRYVAKYCSKLRYLNARGCEGITDHGVEYLAKNCTKLKSLDIGKCPLVSDTGLECLALNCFNLKRLSLKSCESITGQGLQIVAANCFDLQTLNVQDCEVSVEALRFVKRHCKRCVIEHTNPAFF
In the case of B1, the binding entry is “binds”.

Source of the values: publication PMC7227341.
